Measured values as given in patent US11193110B2, “Methods to generate gastrointestinal epithelial tissue constructs” (The University of North Carolina at Chapel Hill, priority 2015, dated 2021).
At least one compound was matched to its structure with a doubt left.

Tested on: primary intestinal epithelial cells
Assay: screen of dietary compounds and natural products on primary intestinal epithelial cells on collagen hydrogel (Hoechst 33342, EDU, alkaline phosphatase, Muc2)
Format: cell-based
Conditions: 48 h incubation at Table 1 concentration; relative to control cells cultured in ENR-W
From the text: FIG. 11. The impact of dietary compounds and natural products on primary colonic epithelium. The percentage of the collagen Daiszein (aglycone of daidzen) surface area occupied by cells (Hoechst 33342-positive) and the normalized EDU (A), alkaline phosphatase and mucin2-positive areas (B) were plotted against the compound number. The EDU, alkaline phosphatase and Muc2 areas were normalized to the total cell area. Alphabetic headings refer to categories described in Table 1.
Strategies to screen the vast number of dietary and metabolite compounds for their impact on proliferation, differentiation and other cell behaviors in the intestine have become increasingly important. However, major challenges exist due to a lack of technologies capable of faithfully duplicating the actions of these compounds on normal, healthy colonic cells. […] These attributes are central to intestinal barrier function and repair in the face of repeated chemical, physical, immune and infectious insults. Additionally controlled proliferation and terminal differentiation are key to avoiding an oncogenic state. […] The cells were then analyzed sequentially for four attributes: nuclei (Hoechst 33342), S-phase or proliferating cells (EDU), enterocyte phenotype (high alkaline phosphatase), and goblet cell marker (Muc2) (FIGS. 11A-B). […]

## CCCC(CCC)C(=O)O [#6, Valproate, reference compound]
  S-phase or proliferating cells (EDU): suppressed proliferation
  number of nuclei / cell number (Hoechst 33342): did not greatly diminish cell number
